PubChem BioAssay AID1159578 | Peter MacCallum Cancer Centre – 2015
Here is a random part of about 18,000 reagents. About 1,030 of them (5.7%) count as active. 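Inactive calls also include pools with fewer than 3300 nuclei, whose migration was not assessed.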 The raw values are shown without normalisation.

Screen: 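Knock-downs that alter how fast lymphatic endothelial cells migrate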 (primary screen)
Cells: human lymphatic endothelial cells
Reagent: siRNA pool against human genes, 40 nM
Time to read-out: 48 h after transfection
Detection: 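High-content imaging of dye-stained cells in a scratch assay measures filled wound area and nuclei per well; duplicate means given as ratio to mock and robust z-score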
Direction: migration robust z-score: higher = faster migration into the scratch; migration relative to mock: higher = more scratch area covered than mock; nuclei per well: higher = more cells in the well
Rule for the call: 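Migration changed when robust z exceeds 2 or falls below -2 and mean nuclei number is at least 3300; otherwise not called changed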
Meaning of the calls: active = migration changed; inactive = no migration change, or too few cells

| target | PubChem SID | migration robust z-score | migration class with cell-count check | migration relative to mock | nuclei per well, duplicate mean | activity call |
| --- | --- | --- | --- | --- | --- | --- |
| FOXP2 (forkhead box P2) | SID255362100 | 0.46 | migration z between -2 and 2; enough cells | 0.9 | 6558 | inactive |
| MMP26 (matrix metallopeptidase 26) | SID255359089 | 0.52 | migration z between -2 and 2; enough cells | 0.9 | 5770 | inactive |
| AGL (amylo-alpha-1,6-glucosidase and 4-alpha-glucanotransferase) | SID255348234 | -2.54 | under 3300 nuclei; migration not judged | 0.32 | 3070 | inactive |
| NRIP3 (nuclear receptor interacting protein 3) | SID255359115 | 0.33 | migration z between -2 and 2; enough cells | 0.97 | 5672 | inactive |
| STEAP2 (STEAP2 metalloreductase) | SID255364598 | -0.76 | migration z between -2 and 2; enough cells | 0.66 | 4450 | inactive |
| PNPLA6 (patatin like domain 6, lysophospholipase) | SID255355436 | 0.46 | migration z between -2 and 2; enough cells | 0.9 | 5438 | inactive |
| TGFA (transforming growth factor alpha) | SID255352838 | -0.12 | migration z between -2 and 2; enough cells | 0.85 | 6066 | inactive |
| FAM217B (family with sequence similarity 217 member B) | SID255359785 | -0.23 | migration z between -2 and 2; enough cells | 0.83 | 6866 | inactive |
| EHMT2 (euchromatic histone lysine methyltransferase 2) | SID255355445 | 0.2 | migration z between -2 and 2; enough cells | 0.84 | 5524 | inactive |
| EN1 (engrailed homeobox 1) | SID255349502 | 1.34 | migration z between -2 and 2; enough cells | 1.06 | 5848 | inactive |
| INTU (inturned planar cell polarity protein) | SID255356949 | -0.2 | migration z between -2 and 2; enough cells | 0.83 | 6241 | inactive |
| UROS (uroporphyrinogen III synthase) | SID255353080 | -1.03 | migration z between -2 and 2; enough cells | 0.6 | 5410 | inactive |
| FBXL6 (F-box and leucine rich repeat protein 6) | SID255356725 | 0.67 | migration z between -2 and 2; enough cells | 0.94 | 5376 | inactive |
| KIAA1191 | SID255359322 | 1.04 | migration z between -2 and 2; enough cells | 1.16 | 5388 | inactive |
| RRP7A (ribosomal RNA processing 7 homolog A) | SID255357042 | 0.17 | migration z between -2 and 2; enough cells | 0.93 | 5594 | inactive |
| NR2C1 (nuclear receptor subfamily 2 group C member 1) | SID255352956 | -0.02 | migration z between -2 and 2; enough cells | 0.8 | 4440 | inactive |
| LRRC37A3 (leucine rich repeat containing 37 member A3) | SID255365333 | 0.4 | migration z between -2 and 2; enough cells | 0.99 | 6006 | inactive |
| JOSD2 (Josephin domain containing 2) | SID255362684 | -0.12 | migration z between -2 and 2; enough cells | 0.86 | 5976 | inactive |
| TNC (tenascin C) | SID255350367 | 0.21 | migration z between -2 and 2; enough cells | 0.84 | 5445 | inactive |
| KIR2DL5A | SID255359354 | 0.3 | migration z between -2 and 2; enough cells | 0.97 | 5520 | inactive |
| AFAP1L1 (actin filament associated protein 1 like 1) | SID255362964 | 0.18 | migration z between -2 and 2; enough cells | 0.93 | 5918 | inactive |
| CER1 (cerberus 1, DAN family BMP antagonist) | SID255354209 | 0.29 | migration z between -2 and 2; enough cells | 0.96 | 6908 | inactive |
| CHST11 (carbohydrate sulfotransferase 11) | SID255357336 | 0.17 | migration z between -2 and 2; enough cells | 0.93 | 5681 | inactive |
| ZNF141 (zinc finger protein 141) | SID255353241 | -1.75 | migration z between -2 and 2; enough cells | 0.43 | 4274 | inactive |
| GDF2 (growth differentiation factor 2) | SID255349863 | -1.85 | migration z between -2 and 2; enough cells | 0.45 | 4512 | inactive |
| RBM6 (RNA binding motif protein 6) | SID255354874 | -0.77 | migration z between -2 and 2; enough cells | 0.68 | 4152 | inactive |
| SUCO (SUN domain containing ossification factor) | SID255357713 | -0.52 | migration z between -2 and 2; enough cells | 0.75 | 4823 | inactive |
| EPB41L4A (erythrocyte membrane protein band 4.1 like 4A) | SID255359826 | 1.4 | migration z between -2 and 2; enough cells | 1.25 | 5442 | inactive |
| UBE2M (ubiquitin conjugating enzyme E2 M) | SID255353985 | -0.16 | migration z between -2 and 2; enough cells | 0.77 | 5330 | inactive |
| NDUFA9 (NADH:ubiquinone oxidoreductase subunit A9) | SID255351166 | 0.68 | migration z between -2 and 2; enough cells | 0.94 | 6860 | inactive |
| SRSF6 (serine and arginine rich splicing factor 6) | SID255352381 | 0.26 | migration z between -2 and 2; enough cells | 0.95 | 5416 | inactive |
| FTH1 (ferritin heavy chain 1) | SID255349758 | 0.4 | migration z between -2 and 2; enough cells | 0.98 | 7114 | inactive |
| MRPL23 (mitochondrial ribosomal protein L23) | SID255352181 | -2.37 | migration z below -2; enough cells | 0.26 | 3540 | active |
| MICAL1 | SID255359995 | -0.3 | migration z between -2 and 2; enough cells | 0.8 | 7132 | inactive |
| PNPLA4 | SID255353431 | 0.18 | migration z between -2 and 2; enough cells | 0.84 | 6048 | inactive |
| SIKE1 (suppressor of IKBKE 1) | SID255360668 | -0.41 | migration z between -2 and 2; enough cells | 0.78 | 6140 | inactive |
| FOXE3 (forkhead box E3) | SID255349707 | -0.62 | migration z between -2 and 2; enough cells | 0.68 | 5466 | inactive |
| TRIML1 (tripartite motif family like 1) | SID255365061 | -2.28 | migration z below -2; enough cells | 0.36 | 3554 | active |
| PPP3CB (protein phosphatase 3 catalytic subunit beta) | SID255351758 | -1.19 | migration z between -2 and 2; enough cells | 0.57 | 4786 | inactive |
| LPIN3 (lipin 3) | SID255360044 | 0.36 | migration z between -2 and 2; enough cells | 0.98 | 5502 | inactive |
| GYG2 (glycogenin 2) | SID255353912 | 0 | migration z between -2 and 2; enough cells | 0.8 | 6256 | inactive |
| NCEH1 (neutral cholesterol ester hydrolase 1) | SID255359463 | -0.93 | migration z between -2 and 2; enough cells | 0.62 | 6460 | inactive |
| CDH3 (cadherin 3) | SID255348822 | 2.12 | migration z above 2; enough cells | 1.44 | 6326 | active |
| SOS1 (SOS Ras/Rac guanine nucleotide exchange factor 1) | SID255352570 | 0.36 | migration z between -2 and 2; enough cells | 0.88 | 5691 | inactive |
| GPR32 (G protein-coupled receptor 32) | SID255350001 | -0.06 | migration z between -2 and 2; enough cells | 0.8 | 4818 | inactive |
| GLI4 (GLI family zinc finger 4) | SID255349914 | -1.54 | migration z between -2 and 2; enough cells | 0.48 | 4200 | inactive |
| MARF1 (meiosis regulator and mRNA stability factor 1) | SID255354453 | -0.15 | migration z between -2 and 2; enough cells | 0.84 | 4966 | inactive |
| PLEKHG4B (pleckstrin homology and RhoGEF domain containing G4B) | SID255363565 | 0.54 | migration z between -2 and 2; enough cells | 1.02 | 5834 | inactive |
| GRIA4 (glutamate ionotropic receptor AMPA type subunit 4) | SID255350032 | 0.34 | migration z between -2 and 2; enough cells | 0.87 | 5911 | inactive |
| PTN (pleiotrophin) | SID255351942 | -0.91 | migration z between -2 and 2; enough cells | 0.63 | 4008 | inactive |
| HSPB8 (heat shock protein family B (small) member 8) | SID255356776 | -3.81 | under 3300 nuclei; migration not judged | 0.07 | 3102 | inactive |
| CHMP4C (charged multivesicular body protein 4C) | SID255362012 | 0.18 | migration z between -2 and 2; enough cells | 0.93 | 5668 | inactive |
| NSUN4 (NOP2/Sun RNA methyltransferase 4) | SID255365438 | 0.88 | migration z between -2 and 2; enough cells | 1.12 | 6000 | inactive |
| ZMIZ1 (zinc finger MIZ-type containing 1) | SID255359321 | 0.52 | migration z between -2 and 2; enough cells | 1.02 | 5954 | inactive |
| CLLU1 (chronic lymphocytic leukemia up-regulated 1) | SID255366050 | -0.83 | migration z between -2 and 2; enough cells | 0.66 | 4761 | inactive |
| SYTL5 (synaptotagmin like 5) | SID255362122 | -0.66 | migration z between -2 and 2; enough cells | 0.72 | 4842 | inactive |
| MOV10L1 (Mov10 like RNA helicase 1) | SID255358015 | -0.96 | migration z between -2 and 2; enough cells | 0.62 | 5206 | inactive |

Ordered by “migration robust z-score” (highest first): some entries from above
| target | PubChem SID | migration robust z-score | migration class with cell-count check | migration relative to mock | nuclei per well, duplicate mean | activity call |
| --- | --- | --- | --- | --- | --- | --- |
| LRRC37A3 (leucine rich repeat containing 37 member A3) | SID255365333 | 0.4 | migration z between -2 and 2; enough cells | 0.99 | 6006 | inactive |
| KIR2DL5A | SID255359354 | 0.3 | migration z between -2 and 2; enough cells | 0.97 | 5520 | inactive |
| TNC (tenascin C) | SID255350367 | 0.21 | migration z between -2 and 2; enough cells | 0.84 | 5445 | inactive |
| RRP7A (ribosomal RNA processing 7 homolog A) | SID255357042 | 0.17 | migration z between -2 and 2; enough cells | 0.93 | 5594 | inactive |
| NR2C1 (nuclear receptor subfamily 2 group C member 1) | SID255352956 | -0.02 | migration z between -2 and 2; enough cells | 0.8 | 4440 | inactive |
| JOSD2 (Josephin domain containing 2) | SID255362684 | -0.12 | migration z between -2 and 2; enough cells | 0.86 | 5976 | inactive |
